Reference: patent US20150174186A1, “PHARMACEUTICAL COMPOSITION FOR PREVENTING OR TREATING STAT3-MEDIATED DISEASE, COMPRISING SALVIA PLEBEIA R. BR. EXTRACT OR FRACTION THEREOF AS ACTIVE INGREDIENT” (Korea Research Institute of Bioscience and Biotechnology, priority 2012, published 2015)

Experiments:
[1] = test system: osteoclasts; test: Differentiation and formation of osteoclasts from bone marrow macrophages (TRAP assay); type: cell-based, ICR mouse; conditions: 30 and 60 μM
Text: Osteoclasts are known to directly affect bone resorption, and the differentiation and formation of osteoclasts play a very important role in osteoporosis. In order to examine the effect of the ethanol extract of Salvia plebeia R. Br. on the differentiation and formation of osteoclasts, the differentiation from bone marrow cells isolated from the femur of an ICR mouse into osteoclasts was observed.
Bone marrow cells were separated from the femur of a three- to six-week old ICR mouse, and the separated cells were treated with M-CSF (30 ng/ml) for 3 days, thereby inducing their differentiation into bone marrow macrophage (BMM). Then, the BMM was treated with M-CSF (30 ng/ml) and RANKL (100 ng/ml) for 4 days, thereby inducing them to be differentiated into osteoclasts. In order to examine the efficacies of the ethanol extract of Salvia plebeia R. Br., the BMM cells, which had not been differentiated into osteoclasts, were treated with the Salvia plebeia R. Br. extract at concentrations of 10, 30, and 60 μg/ml, followed by treatment with M-CSF and RANKL for 4 days. Then, the differentiation and formation of osteoclasts were confirmed by TRAP assay.

[2] = test system: mouse model with osteoporosis induced by ovariectomy; test: Mouse model with osteoporosis induced by ovariectomy (DEXA, micro CT); type: in vivo, C57BL/6 mouse; conditions: compared to PBS after ovariectomy, oral, five weeks
Description: Test groups were divided into a sham group (only surgery without ovary removal) and a group treated with ovariectomy (OVX). In the OVX group, the ovaries of an eight-week old female C57BL/6 mouse were removed by surgery and the mouse was bred for 6 weeks to induce osteoporosis. Then, the mouse was orally administered with PBS, alendronate (3 mg/kg), or ethanol extract of Salvia plebeia R. Br. (100 mg/kg, 300 mg/kg or 500 mg/kg) for five weeks. The sample was used after dissolving in PBS. Furthermore, the sham group was orally administered with PBS for five weeks.
Upon termination of five weeks' oral administration, the Bone Mineral Density (BMD) and Bone Mineral Content (BMC) of the mouse were measured using an osteoporosis analyzing device Dual-Energy X-ray Absorptiometry (DEXA; bone mineral density analyzer), and the results are shown in FIG. 21a-21d.
Upon termination of five weeks' oral administration, the mice of each experimental group were sacrificed, and the bones adjacent to tibia were separated. The bones were then photographed to obtain their 3-dimensional structures and cross-sections via micro CT, and the microstructures and volume of the bones and trabecular thickness were measured. […] Additionally, the therapeutic effect was determined based on the trabecular separation and the trabecular number.

NCCCC(O)(P(=O)(O)O)P(=O)(O)O [alendronate]
toxicity to BMM cells [1]: serious toxicity was observed
Bone Mineral Density (BMD) [2]: significant increase
